The subject of the assay is L1210 leukemia ip in BDF1 mice, survival T/C. Kind of assay: NCI In Vivo Anticancer Drug Screen. Data for tumor model L1210 Leukemia (intraperitoneal) in B6D2F1 (BDF1) mice. The note with it: T/C endpoint: mean survival time, higher T/C = longer survival.

The list shows only some results of the screen, not a fair sample: it is rich in T/C values a quarter to a half above the control, in often repeated tests (any T/C) and in doses without a T/C. Further doses and runs are listed elsewhere. T/C: endpoint of the treated group in % of that of the vehicle group. Some doses have a count of surviving animals in place of a T/C: the source holds a T/C of zero for them, seemingly a mark for toxic or unscored doses. Some doses without a T/C left all or most animals alive at the check, yet need not have been tolerated: survival well below the control is almost never listed, so the zero probably covers shortened survival too. Counts of survivors are from the toxicity check (mostly the fifth day) where no day follows; animals may have died later. Schedules are NCI's codes, read here as Q, the interval in days (D) or hours (H), X, the number of doses. Some schedule codes hold Z or #, which are not explained here. Some structures stand for samples that the source files as different forms (salt, stereo form or complex); doses refer to the form tested. Where survival is the endpoint, this PubChem deposit counts one and a half times the control or more as active, and values a quarter to a half above the control carry no call in these data; other NCI protocols may use other cut-offs. Some entries were tested several times; the results are listed from low to high. Marks such as (2×) count equal records among those shown. Some T/C values carry the count of animals alive at the toxicity check (mostly the fifth day); where none is given, no animal had died by that day.

On to `N#Cc1cc2ccccc2[n+](CCCl)c1`, for which the survivor count is, setting by setting: (dose: 10.0 mg/kg/injection, schedule: Q01DX Z (ip), vehicle: saline) 4 of 6; (dose: 30.0 mg/kg/injection, schedule: Q01DX Z (ip), vehicle: saline) 0 of 6; (dose: 100.0 mg/kg/injection, schedule: Q01DX Z (ip), vehicle: saline) 0 of 6; (dose: 300.0 mg/kg/injection, schedule: Q01DX Z (ip), vehicle: saline) 0 of 6.

With `c1ccc(C2=C([P+](c3ccccc3)(c3ccccc3)c3ccccc3)CCO2)cc1`, the survivor count runs as follows: (dose: 25.0 mg/kg/injection, schedule: Q01DX001 (ip), vehicle: saline) 3 of 6; (dose: 25.0 mg/kg/injection, schedule: Q04DX003 (ip), vehicle: saline) 3 of 6; (dose: 50.0 mg/kg/injection, schedule: Q01DX001 (ip), vehicle: saline) 2 of 6; (dose: 50.0 mg/kg/injection, schedule: Q04DX003 (ip), vehicle: saline) 4 of 6; (dose: 100.0 mg/kg/injection, schedule: Q01DX001 (ip), vehicle: saline) 0 of 6; (dose: 200.0 mg/kg/injection, schedule: Q01DX001 (ip), vehicle: saline) 0 of 6. Besides, where the note is “dose: 400.0 mg/kg/injection, schedule: Q01DX001 (ip), vehicle: saline”, the survivor count is given as 0 of 6.

Take `C/C=C(/Cl)c1c(C)cc(C)cc1C`: the survivor count (dose: 200.0 mg/kg/injection, schedule: Q01DX009 (ip), vehicle: saline with Tween-80) was 6 of 6.

In the case of `NC(N)=N/N=C/c1ccc(F)cc1`, the survivor count by setting is: (dose: 240.0 mg/kg/injection, schedule: Q01DX Z (ip), vehicle: carboxymethylcellulose (CMC)) 3 of 6; (dose: 480.0 mg/kg/injection, schedule: Q01DX Z (ip), vehicle: carboxymethylcellulose (CMC)) 0 of 6.

Consider `CC(C)=CCC1=C(O)c2ccccc2C(=O)C1=O`, for which the survivor count (dose: 1.0 mg/kg/injection, schedule: Q01DX Z (ip), vehicle: water) is 6 of 6; the survivor count (dose: 100.0 mg/kg/injection, schedule: Q01DX015 (ip), vehicle: water) was 2 of 6; the survivor count (dose: 133.33 mg/kg/injection, schedule: Q#B X027 (ip), vehicle: water) is reported as 0 of 6; the survivor count (dose: 133.33 mg/kg/injection, schedule: Q#B X027 (sc), vehicle: water) is 1 of 6; the survivor count (dose: 200.0 mg/kg/injection, schedule: Q01DX015 (ip), vehicle: water) is on record as 0 of 6; the survivor count (dose: 200.0 mg/kg/injection, schedule: Q#A X Z (ip), vehicle: water) was 3 of 6. Moreover, the survivor count is reported as 2 of 6 (dose: 200.0 mg/kg/injection, schedule: Q#B X027 (oral), vehicle: water); 0 of 6 (dose: 200.0 mg/kg/injection, schedule: Q#B X027 (sc), vehicle: water); 1 of 6 (dose: 266.67 mg/kg/injection, schedule: Q#B X027 (oral), vehicle: water); 0 of 6 (dose: 350.0 mg/kg/injection, schedule: Q01DX015 (ip), vehicle: water); 3 of 6 (dose: 375.0 mg/kg/injection, schedule: Q#A X018 (oral), vehicle: other); 0 of 6 (dose: 400.0 mg/kg/injection, schedule: Q01DX Z (ip), vehicle: water). The survivor count is 1 of 6 (dose: 500.0 mg/kg/injection, schedule: Q#A X018 (oral), vehicle: other); 0 of 6 (dose: 530.0 mg/kg/injection, schedule: Q01DX015 (ip), vehicle: water); 0 of 6 (dose: 750.0 mg/kg/injection, schedule: Q#A X018 (oral), vehicle: other); 0 of 6 (dose: 800.0 mg/kg/injection, schedule: Q01DX015 (ip), vehicle: water). In addition, the T/C was 127 % of control (dose: 8.33 mg/kg/injection, schedule: Q#B X027 (ip), vehicle: water); 125 % of control (dose: 33.33 mg/kg/injection, schedule: Q#B X027 (ip), vehicle: water); 94 (2×), 100, 148 % of control (dose: 50.0 mg/kg/injection, schedule: Q01DX Z (ip), vehicle: water); 96, 98, 101, 107 % of control (dose: 56.0 mg/kg/injection, schedule: Q01DX009 (ip), vehicle: other); 94, 96 (2×), 137 % of control (dose: 100.0 mg/kg/injection, schedule: Q01DX Z (ip), vehicle: water); 133 % of control [5 of 6 alive] (dose: 100.0 mg/kg/injection, schedule: Q#B X027 (ip), vehicle: water).

In the case of `NC(CSS(=O)(=O)O)=NCCCC1CCCCC1`, the survivor count reads like this: (dose: 25.0 mg/kg/injection, schedule: Q04DX002 (ip), vehicle: saline with Tween-80) 0 of 3; (dose: 100.0 mg/kg/injection, schedule: Q04DX002 (ip), vehicle: saline with Tween-80) 0 of 3; (dose: 200.0 mg/kg/injection, schedule: Q04DX002 (ip), vehicle: saline with Tween-80) 0 of 3; (dose: 400.0 mg/kg/injection, schedule: Q04DX002 (ip), vehicle: saline with Tween-80) 0 of 3.

On to `CC1(C)N=C(N)N=C(N)N1c1cccc(C(=O)Nc2ccc(S(=O)(=O)F)cc2)c1`, for which the survivor count (dose: 100.0 mg/kg/injection, schedule: Q01DX009 (ip), vehicle: saline) was 2 of 6 and the survivor count (dose: 500.0 mg/kg/injection, schedule: Q01DX009 (ip), vehicle: saline) is listed as 0 of 6.

For `CCOC1(OCC)C(Cl)=C(Cl)C(Cl)=C1Cl`, the survivor count by setting is: (dose: 100.0 mg/kg/injection, schedule: Q01DX009 (ip), vehicle: Klucel (hydroxypropylcellulose) (HPC)) 0 of 3; (dose: 100.0 mg/kg/injection, schedule: Q04DX002 (ip), vehicle: Klucel (hydroxypropylcellulose) (HPC)) 2 of 3.

Turning to `O=C(O)c1ccc2c(ccc3ccc4ccccc4c32)c1`, for the setting “dose: 400.0 mg/kg/injection, schedule: Q04DX003 (ip), vehicle: Klucel (hydroxypropylcellulose) (HPC)”, the survivor count is 2 of 6.

Take `CC(C)CC(O)CC(C)C`: the survivor count (dose: 470.0 mg/kg/injection, schedule: Q01DX009 (ip), vehicle: saline with Tween-80) is listed as 1 of 6.

The record behind these values is PubChem BioAssay AID248 (DTP/NCI, 2004).
